Results published in the supplement of paper PMC10849652.
This is one part of the list.

Chains of the proteins cited; added tags and fusions are not shown. Lines headed by an entry give the natural chain unless they say otherwise; changes in a name come on top.
UniProt Q96PZ0: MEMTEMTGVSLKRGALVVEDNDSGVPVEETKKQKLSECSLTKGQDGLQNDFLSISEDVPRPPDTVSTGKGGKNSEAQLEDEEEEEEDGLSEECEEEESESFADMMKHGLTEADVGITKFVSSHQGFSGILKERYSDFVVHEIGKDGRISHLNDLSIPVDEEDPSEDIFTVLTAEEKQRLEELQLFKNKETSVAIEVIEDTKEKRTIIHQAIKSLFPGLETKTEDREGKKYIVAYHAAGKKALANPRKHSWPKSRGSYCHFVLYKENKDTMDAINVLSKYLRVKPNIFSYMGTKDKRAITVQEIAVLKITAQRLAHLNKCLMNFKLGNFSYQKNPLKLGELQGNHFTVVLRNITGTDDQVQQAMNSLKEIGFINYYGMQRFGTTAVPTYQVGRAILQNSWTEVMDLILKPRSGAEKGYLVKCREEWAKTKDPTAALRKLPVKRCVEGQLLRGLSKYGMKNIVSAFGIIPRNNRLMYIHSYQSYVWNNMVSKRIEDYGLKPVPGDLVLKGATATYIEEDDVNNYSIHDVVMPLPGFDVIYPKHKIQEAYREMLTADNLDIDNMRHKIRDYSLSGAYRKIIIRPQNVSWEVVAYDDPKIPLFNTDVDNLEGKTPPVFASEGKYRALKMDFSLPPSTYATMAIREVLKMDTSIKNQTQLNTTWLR
UniProt Q92530: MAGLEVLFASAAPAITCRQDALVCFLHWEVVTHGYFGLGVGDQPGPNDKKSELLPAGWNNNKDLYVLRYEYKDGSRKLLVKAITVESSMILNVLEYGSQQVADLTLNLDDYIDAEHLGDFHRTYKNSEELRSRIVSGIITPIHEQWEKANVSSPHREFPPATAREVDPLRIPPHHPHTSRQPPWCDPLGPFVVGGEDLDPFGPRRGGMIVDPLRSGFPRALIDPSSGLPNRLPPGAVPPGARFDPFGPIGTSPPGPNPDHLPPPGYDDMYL
UniProt P35998: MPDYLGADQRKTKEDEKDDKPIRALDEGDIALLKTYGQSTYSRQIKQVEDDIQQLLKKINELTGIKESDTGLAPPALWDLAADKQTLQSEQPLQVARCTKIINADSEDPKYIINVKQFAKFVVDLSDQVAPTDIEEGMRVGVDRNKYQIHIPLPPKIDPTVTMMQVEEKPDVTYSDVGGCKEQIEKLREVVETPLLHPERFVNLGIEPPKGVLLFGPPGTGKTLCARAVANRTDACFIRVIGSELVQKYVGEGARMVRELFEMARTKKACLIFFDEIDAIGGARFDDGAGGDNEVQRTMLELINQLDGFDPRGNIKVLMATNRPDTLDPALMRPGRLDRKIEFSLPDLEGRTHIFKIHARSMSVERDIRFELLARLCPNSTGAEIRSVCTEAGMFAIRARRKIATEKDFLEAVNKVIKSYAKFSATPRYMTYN
UniProt Q99436: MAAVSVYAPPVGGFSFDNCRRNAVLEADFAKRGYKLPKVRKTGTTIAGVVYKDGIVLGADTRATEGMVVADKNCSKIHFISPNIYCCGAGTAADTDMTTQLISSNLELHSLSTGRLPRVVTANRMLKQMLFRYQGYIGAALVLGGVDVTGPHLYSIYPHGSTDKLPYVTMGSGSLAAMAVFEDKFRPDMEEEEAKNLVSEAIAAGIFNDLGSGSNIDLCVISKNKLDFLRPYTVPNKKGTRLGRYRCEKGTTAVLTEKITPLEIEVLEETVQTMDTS
UniProt Q9H7Z7: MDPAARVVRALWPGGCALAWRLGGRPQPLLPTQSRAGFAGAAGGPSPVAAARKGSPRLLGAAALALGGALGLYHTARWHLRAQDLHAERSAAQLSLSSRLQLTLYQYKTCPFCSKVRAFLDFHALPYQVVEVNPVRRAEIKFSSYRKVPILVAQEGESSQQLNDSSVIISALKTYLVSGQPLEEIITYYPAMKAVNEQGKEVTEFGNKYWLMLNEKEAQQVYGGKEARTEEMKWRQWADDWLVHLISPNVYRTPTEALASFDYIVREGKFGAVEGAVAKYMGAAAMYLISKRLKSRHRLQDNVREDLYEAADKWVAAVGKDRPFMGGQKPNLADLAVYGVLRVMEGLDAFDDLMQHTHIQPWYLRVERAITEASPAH
UniProt O00231, whole entry, looked up: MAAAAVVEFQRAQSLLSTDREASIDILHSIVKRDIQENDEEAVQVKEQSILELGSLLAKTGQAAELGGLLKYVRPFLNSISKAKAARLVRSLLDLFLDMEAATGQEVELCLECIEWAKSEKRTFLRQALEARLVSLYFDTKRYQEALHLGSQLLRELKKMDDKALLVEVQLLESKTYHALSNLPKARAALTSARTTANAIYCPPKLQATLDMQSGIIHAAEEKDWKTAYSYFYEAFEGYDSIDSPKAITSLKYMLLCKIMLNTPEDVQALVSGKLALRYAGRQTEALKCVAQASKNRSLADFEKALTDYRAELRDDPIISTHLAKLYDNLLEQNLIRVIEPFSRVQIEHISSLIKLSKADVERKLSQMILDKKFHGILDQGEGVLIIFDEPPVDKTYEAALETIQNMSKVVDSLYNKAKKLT
UniProt Q9H974: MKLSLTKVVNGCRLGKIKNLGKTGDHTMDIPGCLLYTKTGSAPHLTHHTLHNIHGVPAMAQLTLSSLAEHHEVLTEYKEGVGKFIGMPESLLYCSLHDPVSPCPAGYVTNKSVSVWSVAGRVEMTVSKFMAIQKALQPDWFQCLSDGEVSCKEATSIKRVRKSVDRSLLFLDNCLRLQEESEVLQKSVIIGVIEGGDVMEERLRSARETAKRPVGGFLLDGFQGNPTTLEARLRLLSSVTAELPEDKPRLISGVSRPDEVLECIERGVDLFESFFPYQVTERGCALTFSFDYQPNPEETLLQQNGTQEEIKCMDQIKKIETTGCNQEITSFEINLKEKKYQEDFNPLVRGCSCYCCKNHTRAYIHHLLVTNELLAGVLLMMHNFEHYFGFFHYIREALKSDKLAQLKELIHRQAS
UniProt P47897: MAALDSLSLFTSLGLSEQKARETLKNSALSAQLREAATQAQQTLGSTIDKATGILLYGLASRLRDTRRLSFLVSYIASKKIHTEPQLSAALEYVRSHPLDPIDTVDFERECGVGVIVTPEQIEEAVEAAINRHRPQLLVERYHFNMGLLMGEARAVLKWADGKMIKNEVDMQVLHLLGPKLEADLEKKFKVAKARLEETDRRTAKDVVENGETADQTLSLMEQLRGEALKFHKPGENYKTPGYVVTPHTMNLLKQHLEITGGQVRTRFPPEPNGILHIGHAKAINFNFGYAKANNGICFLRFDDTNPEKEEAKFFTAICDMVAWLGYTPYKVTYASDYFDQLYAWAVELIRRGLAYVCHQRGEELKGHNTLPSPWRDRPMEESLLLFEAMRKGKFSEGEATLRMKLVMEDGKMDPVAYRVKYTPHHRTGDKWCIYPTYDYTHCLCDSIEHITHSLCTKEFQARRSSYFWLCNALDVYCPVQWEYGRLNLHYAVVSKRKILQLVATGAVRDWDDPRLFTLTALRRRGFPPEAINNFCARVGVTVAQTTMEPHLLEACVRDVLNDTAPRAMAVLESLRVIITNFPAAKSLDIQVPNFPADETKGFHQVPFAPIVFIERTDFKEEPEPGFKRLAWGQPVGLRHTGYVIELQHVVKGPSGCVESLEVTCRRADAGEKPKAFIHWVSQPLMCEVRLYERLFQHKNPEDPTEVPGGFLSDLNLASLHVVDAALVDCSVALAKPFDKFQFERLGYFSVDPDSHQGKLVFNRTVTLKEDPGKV
UniProt Q9NRG1: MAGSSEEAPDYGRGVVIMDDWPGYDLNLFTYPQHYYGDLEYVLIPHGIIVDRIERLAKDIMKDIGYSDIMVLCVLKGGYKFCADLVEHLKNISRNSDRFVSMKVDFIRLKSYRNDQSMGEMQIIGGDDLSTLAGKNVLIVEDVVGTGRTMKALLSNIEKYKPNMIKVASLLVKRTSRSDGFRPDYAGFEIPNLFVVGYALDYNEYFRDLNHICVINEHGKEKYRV
UniProt Q16401: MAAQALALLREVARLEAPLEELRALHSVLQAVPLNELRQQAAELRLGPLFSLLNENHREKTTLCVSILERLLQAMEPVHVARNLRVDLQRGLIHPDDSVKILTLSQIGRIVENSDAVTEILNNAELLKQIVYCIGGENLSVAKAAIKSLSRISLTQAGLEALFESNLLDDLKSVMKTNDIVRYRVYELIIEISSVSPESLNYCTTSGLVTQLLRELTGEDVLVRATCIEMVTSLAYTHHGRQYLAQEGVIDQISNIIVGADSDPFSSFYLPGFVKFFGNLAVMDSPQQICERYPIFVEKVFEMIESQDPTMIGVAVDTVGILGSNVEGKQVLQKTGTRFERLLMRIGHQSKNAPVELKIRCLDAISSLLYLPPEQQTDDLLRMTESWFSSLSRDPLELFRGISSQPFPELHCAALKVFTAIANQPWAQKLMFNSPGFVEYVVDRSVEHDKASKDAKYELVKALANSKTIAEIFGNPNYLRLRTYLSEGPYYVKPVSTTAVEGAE
UniProt P48556: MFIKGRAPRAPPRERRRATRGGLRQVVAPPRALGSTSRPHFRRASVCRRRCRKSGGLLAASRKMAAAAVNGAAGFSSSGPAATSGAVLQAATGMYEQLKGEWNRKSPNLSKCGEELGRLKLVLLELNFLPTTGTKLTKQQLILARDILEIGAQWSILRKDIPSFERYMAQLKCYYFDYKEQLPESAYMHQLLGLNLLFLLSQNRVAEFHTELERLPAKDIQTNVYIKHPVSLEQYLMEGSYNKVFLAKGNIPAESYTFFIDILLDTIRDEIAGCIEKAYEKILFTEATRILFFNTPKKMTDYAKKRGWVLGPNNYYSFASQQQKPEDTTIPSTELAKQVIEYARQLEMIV
UniProt Q9Y6I8: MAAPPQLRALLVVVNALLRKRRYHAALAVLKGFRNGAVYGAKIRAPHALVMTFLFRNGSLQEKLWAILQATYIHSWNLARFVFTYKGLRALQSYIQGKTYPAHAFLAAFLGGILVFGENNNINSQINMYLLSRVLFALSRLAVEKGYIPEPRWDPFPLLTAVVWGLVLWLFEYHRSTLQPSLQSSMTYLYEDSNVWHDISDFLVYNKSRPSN
UniProt Q86TP1: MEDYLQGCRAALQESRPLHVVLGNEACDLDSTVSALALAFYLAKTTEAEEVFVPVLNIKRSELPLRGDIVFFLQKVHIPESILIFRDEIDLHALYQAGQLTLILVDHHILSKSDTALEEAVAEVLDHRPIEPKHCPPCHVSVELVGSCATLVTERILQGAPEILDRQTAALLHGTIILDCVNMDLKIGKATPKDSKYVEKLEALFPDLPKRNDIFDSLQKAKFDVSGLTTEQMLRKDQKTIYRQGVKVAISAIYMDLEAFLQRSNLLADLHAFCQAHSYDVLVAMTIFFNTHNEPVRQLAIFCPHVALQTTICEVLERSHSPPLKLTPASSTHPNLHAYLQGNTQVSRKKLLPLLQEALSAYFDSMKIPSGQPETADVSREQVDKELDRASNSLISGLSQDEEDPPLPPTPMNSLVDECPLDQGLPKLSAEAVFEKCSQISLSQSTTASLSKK
UniProt Q96QR8: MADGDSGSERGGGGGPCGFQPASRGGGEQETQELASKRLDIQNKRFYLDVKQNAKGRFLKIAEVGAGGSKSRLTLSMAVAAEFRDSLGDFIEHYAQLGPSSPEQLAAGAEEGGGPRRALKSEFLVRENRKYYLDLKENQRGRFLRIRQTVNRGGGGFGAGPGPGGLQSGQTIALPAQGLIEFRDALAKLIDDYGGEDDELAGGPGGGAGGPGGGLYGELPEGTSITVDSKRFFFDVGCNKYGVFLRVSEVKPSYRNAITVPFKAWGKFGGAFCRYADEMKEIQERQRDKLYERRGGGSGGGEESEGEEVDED
UniProt P62191: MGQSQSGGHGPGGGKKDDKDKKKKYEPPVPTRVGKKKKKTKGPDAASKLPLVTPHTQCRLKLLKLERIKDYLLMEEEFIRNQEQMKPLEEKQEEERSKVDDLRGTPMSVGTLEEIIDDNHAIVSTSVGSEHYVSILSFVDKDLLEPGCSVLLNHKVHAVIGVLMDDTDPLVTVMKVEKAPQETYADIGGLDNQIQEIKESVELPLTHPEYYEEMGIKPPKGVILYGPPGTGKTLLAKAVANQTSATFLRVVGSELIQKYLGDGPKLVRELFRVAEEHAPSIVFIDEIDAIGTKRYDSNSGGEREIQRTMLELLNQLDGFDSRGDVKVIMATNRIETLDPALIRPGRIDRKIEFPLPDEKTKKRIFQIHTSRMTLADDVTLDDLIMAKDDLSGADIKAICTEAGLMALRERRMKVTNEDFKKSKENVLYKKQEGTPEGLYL
UniProt Q15185: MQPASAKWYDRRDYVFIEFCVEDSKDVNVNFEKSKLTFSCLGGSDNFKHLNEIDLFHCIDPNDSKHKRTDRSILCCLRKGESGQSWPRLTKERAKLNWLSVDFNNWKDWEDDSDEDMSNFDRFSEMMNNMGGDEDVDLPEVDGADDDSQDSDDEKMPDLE
UniProt P20962: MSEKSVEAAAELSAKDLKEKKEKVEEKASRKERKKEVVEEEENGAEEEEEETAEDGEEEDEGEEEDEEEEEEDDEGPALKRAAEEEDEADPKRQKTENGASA
UniProt Q6GMV3: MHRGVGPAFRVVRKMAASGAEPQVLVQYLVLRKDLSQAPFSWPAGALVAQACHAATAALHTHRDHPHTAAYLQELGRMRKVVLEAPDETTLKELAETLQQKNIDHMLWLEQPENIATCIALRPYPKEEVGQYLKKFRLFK

Key:
Assay in all cases: log2 fold change, soluble protein after heating vs DMSO (PISA); higher = thermal stabilisation; K562 cells, 10 uM, 30 min; active = over 0.2 and 3.5 SD of the protein, either way, in both replicates (recomputed)
[1] = compound: NC(=O)Nc1cc(-c2cccc(F)c2)sc1C(=O)N[C@H]1CCCNC1
Method in brief: (§1)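 Values are thermal stability changes relative to control samples and are taken from duplicates. They are stated as log2 fold changes. Before quantification by TMTpro 16plex LC-MS/MS with equalised channel sums, K562 cells at 2×10^6 cells/mL were treated with 10 μM compound for 30 min, heated in aliquots for 3 min across 48°C-58°C, pooled, extracted in PBS with 0.5% NP-40 at 4°C, and centrifuged at 21,000xg for 90 min to give the soluble supernatant.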

[2] = compound: NC(=O)c1cnc(N[C@@H]2CCCC[C@@H]2N)nc1Nc1cccc(-n2nccn2)c1
Method in brief: as §1

[3] = compound: NC1(c2ccc(-c3nc4ccn5c(=O)[nH]nc5c4cc3-c3ccccc3)cc2)CCC1
Method in brief: as §1

[4] = compound: NCC(=O)Nc1ccc(-n2nc(C(F)(F)F)cc2-c2ccc3c(ccc4ccccc43)c2)cc1
Method in brief: as §1

entinostat = compound: Nc1ccccc1NC(=O)c1ccc(CNC(=O)OCc2cccnc2)cc1 [entinostat]
Method in brief: as §1

vorinostat = compound: O=C(CCCCCCC(=O)Nc1ccccc1)NO [vorinostat]
Method in brief: as §1

citarinostat = compound: O=C(CCCCCCNC(=O)c1cnc(N(c2ccccc2)c2ccccc2Cl)nc1)NO [citarinostat]
Method in brief: as §1

silmitasertib = compound: O=C(O)c1ccc2c(c1)nc(Nc1cccc(Cl)c1)c1ccncc12 [silmitasertib]
Method in brief: as §1

[5] = compound: O=C1NC(=O)C(c2cnc3ccccn23)=C1c1cn2c3c(cc(F)cc13)CN(C(=O)N1CCCCC1)CC2
Method in brief: as §1

[6] = compound: c1cc(OCCN2CCCCC2)cc(-c2n[nH]c3ccc(-c4nnc[nH]4)cc23)c1
Method in brief: as §1

Measured: log2 fold change

PYGL (UniProt P06737)
inactive: [1] 0.135 | [2] 0.012 | [3] -0.023 | [4] 0.016 | entinostat 0.028 | vorinostat 0.01 | citarinostat 0.039 | silmitasertib 0.034 | [5] -0.043 | [6] -0.041

PSMC3 (UniProt P17980)
inactive: [1] 0.014 | [2] -0.011 | [3] 0.046 | [4] 0.078 | entinostat -0.024 | vorinostat -0.017 | citarinostat -0.053 | silmitasertib -0.018 | [5] 0.049 | [6] -0.092

PUS7 isoform 2 (UniProt Q96PZ0)
inactive: [1] 0.065 | [2] -0.01 | [3] 0.012 | [4] 0.027 | entinostat 0.016 | vorinostat 0.041 | citarinostat -0.024 | silmitasertib -0.014 | [5] -0.002 | [6] -0.079

PYURF (UniProt Q96I23)
inactive: [1] 0.299 | [2] -0.022 | [3] 0.024 | [4] -0.007 | entinostat 0.081 | vorinostat -0.118 | citarinostat -0.034 | silmitasertib 0.049 | [5] -0.117 | [6] -0.03

PSMF1 (UniProt Q92530)
inactive: [1] -0.007 | [2] -0.038 | [3] -0.031 | [4] -0.042 | entinostat -0.007 | vorinostat -0.011 | citarinostat 0.033 | silmitasertib 0.052 | [5] -0.062 | [6] 0.027

PSMC2 (UniProt P35998)
inactive: [1] 0.014 | [2] -0.013 | [3] 0.026 | [4] 0.091 | entinostat -0.025 | vorinostat -0.018 | citarinostat -0.04 | silmitasertib -0.015 | [5] 0.087 | [6] -0.086

PSMB7 (UniProt Q99436)
inactive: [1] -0.007 | [2] 0.042 | [3] 0.056 | [4] 0.086 | entinostat -0.031 | vorinostat -0.037 | citarinostat -0.027 | silmitasertib -0.01 | [5] 0.009 | [6] -0.049

PTGES2 (UniProt Q9H7Z7)
inactive: [1] -0.048 | [2] -0.012 | [3] -0.066 | [4] -0.011 | entinostat -0.019 | vorinostat 0.016 | citarinostat 0.045 | silmitasertib 0.018 | [5] -0.066 | [6] -0.013

PSMD11 (UniProt O00231)
inactive: [1] 0.048 | [2] 0.04 | [3] -0.016 | [4] 0.061 | entinostat -0.012 | vorinostat 0.027 | citarinostat -0.001 | silmitasertib -0.028 | [5] 0.071 | [6] -0.092

QTRT2 isoform 4 (UniProt Q9H974)
inactive: [1] 0.037 | [2] -0.016 | [3] -0.049 | [4] 0.025 | entinostat -0.008 | vorinostat -0.002 | citarinostat 0.008 | silmitasertib 0.055 | [5] -0.061 | [6] -0.004

PSME3 isoform 2 (UniProt P61289)
inactive: [1] 0.05 | [2] 0.021 | [3] 0.063 | [4] 0.073 | entinostat 0.004 | vorinostat -0.02 | citarinostat -0.011 | silmitasertib -0.042 | [5] 0.006 | [6] -0.015

QARS (UniProt P47897)
inactive: [1] 0.179 | [2] 0.032 | [3] 0.253 | [4] -0.01 | entinostat 0.068 | vorinostat 0.019 | citarinostat -0.077 | silmitasertib 0.248 | [5] 0.496 | [6] -0.246

Copied from the results shown (five entries):
PSMF1 (UniProt Q92530)
inactive: [1] -0.007 | [2] -0.038 | [3] -0.031 | [4] -0.042 | entinostat -0.007 | vorinostat -0.011 | citarinostat 0.033 | silmitasertib 0.052 | [5] -0.062 | [6] 0.027

PSMC2 (UniProt P35998)
inactive: [1] 0.014 | [2] -0.013 | [3] 0.026 | [4] 0.091 | entinostat -0.025 | vorinostat -0.018 | citarinostat -0.04 | silmitasertib -0.015 | [5] 0.087 | [6] -0.086

PSMB7 (UniProt Q99436)
inactive: [1] -0.007 | [2] 0.042 | [3] 0.056 | [4] 0.086 | entinostat -0.031 | vorinostat -0.037 | citarinostat -0.027 | silmitasertib -0.01 | [5] 0.009 | [6] -0.049

PTGES2 (UniProt Q9H7Z7)
inactive: [1] -0.048 | [2] -0.012 | [3] -0.066 | [4] -0.011 | entinostat -0.019 | vorinostat 0.016 | citarinostat 0.045 | silmitasertib 0.018 | [5] -0.066 | [6] -0.013

PSMD11 (UniProt O00231)
inactive: [1] 0.048 | [2] 0.04 | [3] -0.016 | [4] 0.061 | entinostat -0.012 | vorinostat 0.027 | citarinostat -0.001 | silmitasertib -0.028 | [5] 0.071 | [6] -0.092

The listing continues.

PSMA6 (UniProt P60900)
inactive: [1] 0.015 | [2] 0.003 | [3] 0.057 | [4] 0.036 | entinostat -0.008 | vorinostat -0.032 | citarinostat -0.003 | silmitasertib 0.063 | [5] -0.004 | [6] -0.048

PRTFDC1 (UniProt Q9NRG1)
inactive: [1] -0.043 | [2] 0.02 | [3] 0.04 | [4] 0.052 | entinostat -0.022 | vorinostat -0.008 | citarinostat 0.046 | silmitasertib -0.084 | [5] -0.027 | [6] 0.014

PSMD5 (UniProt Q16401)
inactive: [1] -0.001 | [2] 0.009 | [3] -0.094 | [4] -0.009 | entinostat 0.01 | vorinostat 0.008 | citarinostat 0.033 | silmitasertib 0.038 | [5] -0.032 | [6] -0.009

PSPH (UniProt P78330)
inactive: [1] 0.017 | [2] -0.029 | [3] -0.008 | [4] 0.003 | entinostat -0.045 | vorinostat -0.013 | citarinostat 0.019 | silmitasertib -0.006 | [5] -0.008 | [6] -0.012

PSMD8 (UniProt P48556)
inactive: [1] -0.035 | [2] 0.042 | [3] -0.07 | [4] 0.009 | entinostat -0.009 | vorinostat 0.016 | citarinostat -0.015 | silmitasertib 0.007 | [5] 0.019 | [6] -0.101

PXMP4 (UniProt Q9Y6I8)
inactive: [1] 0.035 | [2] -0.031 | [3] -0.064 | [4] 0.005 | entinostat -0.021 | vorinostat -0.013 | citarinostat 0.034 | silmitasertib 0.017 | [5] -0.063 | [6] -0.034

PRUNE1 (UniProt Q86TP1)
inactive: [1] -0.004 | [2] -0.012 | [3] -0.179 | [4] 0.052 | entinostat 0.041 | vorinostat 0.04 | citarinostat 0.006 | silmitasertib 0.138 | [5] -0.107 | [6] 0.018

PSMD4 (UniProt Q5VWC4)
inactive: [1] 0.04 | [2] 0.031 | [3] -0.018 | [4] 0.038 | entinostat 0.02 | vorinostat 0.283 | citarinostat 0.066 | silmitasertib 0.018 | [5] 0.054 | [6] -0.149

PTPN11 isoform 1 (UniProt Q06124)
inactive: [1] -0.043 | [2] 0.016 | [3] -0.045 | [4] -0.014 | entinostat 0.014 | vorinostat -0.032 | citarinostat 0.027 | silmitasertib 0.028 | [5] -0.006 | [6] -0.013

PYCR2 (UniProt Q96C36)
inactive: [1] 0.006 | [2] -0.007 | [3] -0.011 | [4] 0.028 | entinostat -0.02 | vorinostat -0.016 | citarinostat -0.005 | silmitasertib -0.02 | [5] 0.001 | [6] -0.02

PURB (UniProt Q96QR8)
inactive: [1] 0.077 | [2] 0.004 | [3] 0.269 | [4] 0.414 | entinostat 0.514 | vorinostat -0.145 | citarinostat -0.079 | silmitasertib 0.09 | [5] 0.314 | [6] -0.098

PSMC1 (UniProt P62191)
inactive: [1] 0.011 | [2] 0.029 | [3] 0.014 | [4] 0.043 | entinostat -0.013 | vorinostat -0.013 | citarinostat -0.032 | silmitasertib 0.001 | [5] 0.026 | [6] -0.047

PSMG3 (UniProt Q9BT73)
inactive: [1] -0.011 | [2] 0.042 | [3] -0.001 | [4] 0.085 | entinostat 0.002 | vorinostat 0.011 | citarinostat 0.07 | silmitasertib -0.023 | [5] -0.042 | [6] -0.029

PTGES3 (UniProt Q15185)
inactive: [1] -0.043 | [2] -0.006 | [3] -0.123 | [4] 0.017 | entinostat 0.075 | vorinostat 0.002 | citarinostat 0.111 | silmitasertib -0.002 | [5] -0.142 | [6] 0.054

PTMS (UniProt P20962)
inactive: [1] 0.08 | [2] 0.034 | [3] 0.021 | [4] 0.045 | entinostat 0.019 | vorinostat -0.048 | citarinostat 0.012 | silmitasertib -0.065 | [5] 0.029 | [6] 0.023

PSMA3 (UniProt P25788)
inactive: [1] 0.03 | [2] 0.022 | [3] 0.071 | [4] 0.058 | entinostat -0.027 | vorinostat -0.029 | citarinostat 0.005 | silmitasertib -0.002 | [5] 0.102 | [6] -0.056

PTRHD1 (UniProt Q6GMV3)
inactive: [1] -0.02 | [2] 0.037 | [3] -0.009 | [4] 0.03 | entinostat 0.095 | vorinostat -0.099 | citarinostat 0.026 | silmitasertib -0.006 | [5] -0.065 | [6] -0.006

PRXL2A (UniProt Q9BRX8)
inactive: [1] 0.025 | [2] -0.201 | [3] 0.025 | [4] -0.091 | entinostat -0.097 | vorinostat 0.068 | citarinostat -0.034 | silmitasertib -0.266 | [5] 0.001 | [6] 0.127
